Experimental data: patent US20230110998A1, “Compositions and Methods for Treatment of Cytokine Storm and Cytokine Release Syndrome” (Yinuoke Medicine Science Technology Company Ltd., priority 2020, published 2023)
At least one compound was matched to its structure with a doubt left.

System: LPS-induced CRS
Assay: Survival of mice with LPS-induced CRS
Type: in vivo, BALB/c mice
Settings: 0.2 mg LPS i.p.; 10 mg/kg; control 4 of 6
Protocol: 8-week-old female BALB/c mice were used for these studies. […] The mice were challenged with 0.2 mg LPS (Sigma Cat. No. L2630) dissolved in 0.1 mL PBS via intraperitoneal injection. The mice were monitored for health condition and survival for a minimum of seven days. […]

O=C(c1ccccc1)c1ccc2n1CC[C@H]2C(=O)O [(R)-ketorolac]
mice died: 1 in 6
